In publication PMC8384837 one finds binding signal (log2 enrichment (interaction score)) data, which are given here for 17 sequences.

Positions count from the first letter of the chain named. Some of the results follow. For some of these results: At the low end of the ranking the order means little. For some of these results: The exact form of the protein is not confirmed.

Common to all, as to conditions: yeast three-hybrid, YBZ-1, SC-Leu-His + 0.5 mM 3-AT, 4 days
Assay [1] has as its target T1, PUM1 PUF domain R1-QFR R2-VFQ R6-SWD S863Q + R864F + Q867R + N899V + Y900F + N1043S + Y1044W + Q1047D (UniProt Q14671).
T1 sequence: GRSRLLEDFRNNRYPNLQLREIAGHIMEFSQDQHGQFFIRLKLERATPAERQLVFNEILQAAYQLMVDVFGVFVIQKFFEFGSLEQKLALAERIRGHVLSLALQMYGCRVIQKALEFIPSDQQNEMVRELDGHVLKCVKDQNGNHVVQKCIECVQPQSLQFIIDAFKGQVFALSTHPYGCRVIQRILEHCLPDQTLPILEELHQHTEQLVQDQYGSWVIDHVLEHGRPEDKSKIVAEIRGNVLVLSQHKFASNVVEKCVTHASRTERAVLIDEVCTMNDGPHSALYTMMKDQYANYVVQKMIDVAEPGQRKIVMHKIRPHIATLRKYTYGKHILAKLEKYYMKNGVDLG

For assay [2], the target named is T2, PUM1 PUF domain R1-QFR R2-VFQ R7-NPG S863Q + R864F + Q867R + N899V + Y900F + S1079N + N1080P + E1083G (UniProt Q14671).
T2 sequence: T1 sequence with S216N, W217Y, D220Q, S252N, N253P, E256G

Assay [3] deals with T3, PUM1 PUF domain R3-THE R4-TFR R7-NPG C935T + R936H + Q939E + N971T + H972F + Q975R + S1079N + N1080P + E1083G (UniProt Q14671).
T3 sequence: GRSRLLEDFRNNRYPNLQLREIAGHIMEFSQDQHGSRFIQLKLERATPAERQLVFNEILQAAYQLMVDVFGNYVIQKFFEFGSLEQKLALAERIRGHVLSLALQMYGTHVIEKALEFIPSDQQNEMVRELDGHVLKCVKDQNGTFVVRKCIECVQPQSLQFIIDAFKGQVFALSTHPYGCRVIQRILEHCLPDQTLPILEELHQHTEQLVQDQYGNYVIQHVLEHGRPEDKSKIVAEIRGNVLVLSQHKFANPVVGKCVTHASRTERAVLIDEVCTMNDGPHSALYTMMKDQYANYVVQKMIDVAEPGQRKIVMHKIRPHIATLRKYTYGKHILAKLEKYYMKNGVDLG

Assay [4] addresses T4, PUM1 PUF domain R5-PHQ R6-SWD C1007P + R1008H + N1043S + Y1044W + Q1047D (UniProt Q14671).
T4 sequence: T1 sequence with Q36S, F37R, R40Q, V72N, F73Y, C180P, R181H

Assay [5] deals with T5, PUM1 PUF domain R6-SWD R7-NPG N1043S + Y1044W + Q1047D + S1079N + N1080P + E1083G (Homo sapiens) (UniProt Q14671).
T5 sequence: T1 sequence with Q36S, F37R, R40Q, V72N, F73Y, S252N, N253P, E256G

Assay [6] addresses T6, PUM1 PUF domain R2-VFQ R3-THE R4-TFR N899V + Y900F + C935T + R936H + Q939E + N971T + H972F + Q975R (UniProt Q14671).
T6 sequence: T3 sequence with N72V, Y73F, N252S, P253N, G256E

Assay [7] addresses T7, PUM1 PUF domain R3-THE R4-TFR R7-NPG C935T + R936H + Q939E + N971T + H972F + Q975R + S1079N + N1080P + E1083G (Homo sapiens) (UniProt Q14671).
T7 sequence: T3 sequence

In assay [8] the target is T8, PUM1 PUF domain R3-THE R4-TFR C935T + R936H + Q939E + N971T + H972F + Q975R (UniProt Q14671).
T8 sequence: T3 sequence with N252S, P253N, G256E

The target in assay [9] is T9, PUM1 PUF domain R6-AWS N1043A + Y1044W + Q1047S (Homo sapiens) (UniProt Q14671).
T9 sequence: T1 sequence with Q36S, F37R, R40Q, V72N, F73Y, S216A, D220S

In assay [10] the target is T10, PUM1 PUF domain R6-RVT N1043R + Y1044V + Q1047T (UniProt Q14671).
T10 sequence: T1 sequence with Q36S, F37R, R40Q, V72N, F73Y, S216R, W217V, D220T

Assay [11] concerns the target T11, PUM1 PUF domain R6-SRE N1043S + Y1044R + Q1047E (UniProt Q14671).
T11 sequence: T1 sequence with Q36S, F37R, R40Q, V72N, F73Y, W217R, D220E

Assay [12] has as its target T12, PUM1 PUF domain R6-TFE N1043T + Y1044F + Q1047E (UniProt Q14671).
T12 sequence: T1 sequence with Q36S, F37R, R40Q, V72N, F73Y, S216T, W217F, D220E

The target in assay [13] is T13, PUM1 PUF domain R6-TRE N1043T + Y1044R + Q1047E (UniProt Q14671).
T13 sequence: T1 sequence with Q36S, F37R, R40Q, V72N, F73Y, S216T, W217R, D220E

Take “GGCUAGAACUAGUGGAUCCCCCGGCGCCCGGCGGCUCGAGCCCGGGUAAGAUGAAAUCGUCUGCAUGCCGCCGGGCGCCAUGCCUGCAGGUCGACUCUAGAAAACAUG”: the binding signal (log2 enrichment (interaction score)) in assay [1] was -6.5; in assay [2], -7.08; in [3], -2.14; in assay [4], -8.27; in assay [5] it was -1.32.
With “GGCUAGAACUAGUGGAUCCCCCGGCGCCCGGCGGCUCGAGCCCGGGUAAGUUGGAUCAGUCUGCAUGCCGCCGGGCGCCAUGCCUGCAGGUCGACUCUAGAAAACAUG”, the binding signal (log2 enrichment (interaction score)) in assay [1] was -6.18; in assay [2], -4.53; in [6], -5.63; in assay [7] it was -1.58; in assay [4] it was under -7.9.
As to “GGCUAGAACUAGUGGAUCCCCCGGCGCCCGGCGGCUCGAGCCCGGGUAAGUUUAAGAAGUCUGCAUGCCGCCGGGCGCCAUGCCUGCAGGUCGACUCUAGAAAACAUG”, the binding signal (log2 enrichment (interaction score)) is -6.45 in assay [1]; -7.06 in assay [2]; -5.45 in [6]; -6.37 in assay [8]; -7.51 in [4]; -0.54 in assay [5].
Take “GGCUAGAACUAGUGGAUCCCCCGGCGCCCGGCGGCUCGAGCCCGGGUAAGUUGACGUAGUCUGCAUGCCGCCGGGCGCCAUGCCUGCAGGUCGACUCUAGAAAACAUG”: the binding signal (log2 enrichment (interaction score)) in [1] is -5.37; in assay [2], -5.49; in assay [6] it was -5.3; in assay [8], -7.36; in [7] it was -1.66; in assay [4] it was -8.04. For the same sequence, in assay [5], the binding signal (log2 enrichment (interaction score)) is -0.93.
Turning to “GGCUAGAACUAGUGGAUCCCCCGGCGCCCGGCGGCUCGAGCCCGGGUAAGUGUACGAAGUCUGCAUGCCGCCGGGCGCCAUGCCUGCAGGUCGACUCUAGAAAACAUG”, the binding signal (log2 enrichment (interaction score)) is -6.31 in assay [1]; -6.17 in [2]; -5.17 in assay [8]; -2.33 in [3]; -9.56 in assay [4]; -0.98 in assay [5].
On to “GGCUAGAACUAGUGGAUCCCCCGGCGCCCGGCGGCUCGAGCCCGGGUAAGUGUAAAUAGUCUGCAUGCCGCCGGGCGCCAUGCCUGCAGGUCGACUCUAGAAAACAUG”, for which the binding signal (log2 enrichment (interaction score)) in assay [1] was -5.76; in assay [6], -5.27; in assay [8], -5.42; in assay [7], -1.76; in assay [4], -7.27; in [9] it was -2.33. Also, the binding signal (log2 enrichment (interaction score)) in assay [10] was under -9.42; in assay [11], under -7.75; in assay [5], -0.61; in assay [12], -4.83; in [13], under -6.77.
Consider “GGCUAGAACUAGUGGAUCCCCCGGCGCCCGGCGGCUCGAGCCCGGGUAAGUUUAAAUAGUCUGCAUGCCGCCGGGCGCCAUGCCUGCAGGUCGACUCUAGAAAACAUG”, for which the binding signal (log2 enrichment (interaction score)) in [1] was -6.22; in assay [2], -6.15; in assay [6], -5.66; in [8], -6.03; in assay [7], -1.92; in assay [4] it was -8.33. Also, the binding signal (log2 enrichment (interaction score)) in assay [5] was -0.86.
Regarding “GGCUAGAACUAGUGGAUCCCCCGGCGCCCGGCGGCUCGAGCCCGGGUAAGUUCAUAUAGUCUGCAUGCCGCCGGGCGCCAUGCCUGCAGGUCGACUCUAGAAAACAUG”, the binding signal (log2 enrichment (interaction score)) in assay [8] was -6.76; in assay [4] it was under -7.9.
In the case of “GGCUAGAACUAGUGGAUCCCCCGGCGCCCGGCGGCUCGAGCCCGGGUAAGUUUACGAGGUCUGCAUGCCGCCGGGCGCCAUGCCUGCAGGUCGACUCUAGAAAACAUG”, the binding signal (log2 enrichment (interaction score)) in assay [1] is -6.54; in assay [2], under -5.26; in [6] it was -6.78; in assay [8], -7.41; in assay [5] it was -0.27.
For “GGCUAGAACUAGUGGAUCCCCCGGCGCCCGGCGGCUCGAGCCCGGGUAAGUUGAAGUAGUCUGCAUGCCGCCGGGCGCCAUGCCUGCAGGUCGACUCUAGAAAACAUG”, the binding signal (log2 enrichment (interaction score)) in assay [1] was -6.36; in assay [2] it was -5.18; in [6], -5.42; in assay [8], -6.83; in assay [7], -1.91; in [4], -8.65. Also, in assay [5], the binding signal (log2 enrichment (interaction score)) was -1.42.
Regarding “GGCUAGAACUAGUGGAUCCCCCGGCGCCCGGCGGCUCGAGCCCGGGUAAGUGUAAAUUGUCUGCAUGCCGCCGGGCGCCAUGCCUGCAGGUCGACUCUAGAAAACAUG”, the binding signal (log2 enrichment (interaction score)) in assay [2] was -5.92; in assay [8], -6.71; in assay [7], -1.25; in [4], under -8.03.
On to “GGCUAGAACUAGUGGAUCCCCCGGCGCCCGGCGGCUCGAGCCCGGGUAAGUGGAAGAUGUCUGCAUGCCGCCGGGCGCCAUGCCUGCAGGUCGACUCUAGAAAACAUG”, for which the binding signal (log2 enrichment (interaction score)) in assay [1] was -6.37; in assay [2], -6.47; in [6] it was -5.53; in assay [7], -1.74; in [4], -6.96.
On to “GGCUAGAACUAGUGGAUCCCCCGGCGCCCGGCGGCUCGAGCCCGGGUAAGUUGACGAGGUCUGCAUGCCGCCGGGCGCCAUGCCUGCAGGUCGACUCUAGAAAACAUG”, for which the binding signal (log2 enrichment (interaction score)) in assay [1] is -5.2; in assay [2], -4.76; in [6], -4.92; in assay [8], under -5.8; in assay [7] it was -1.06.
As to “GGCUAGAACUAGUGGAUCCCCCGGCGCCCGGCGGCUCGAGCCCGGGUAAGUUGGAAUAGUCUGCAUGCCGCCGGGCGCCAUGCCUGCAGGUCGACUCUAGAAAACAUG”, the binding signal (log2 enrichment (interaction score)) in [1] was -6.26; in [2] it was -5.02; in assay [6] it was -4.28; in [4], -5.78.
In the case of “GGCUAGAACUAGUGGAUCCCCCGGCGCCCGGCGGCUCGAGCCCGGGUAAGUGCUAGAAGUCUGCAUGCCGCCGGGCGCCAUGCCUGCAGGUCGACUCUAGAAAACAUG”, the binding signal (log2 enrichment (interaction score)) in assay [1] is -6.22; in [2] it was -5.15; in assay [8] it was -6.54; in [4] it was -8.27.
For “GGCUAGAACUAGUGGAUCCCCCGGCGCCCGGCGGCUCGAGCCCGGGUAAGCAUCGGUAGUCUGCAUGCCGCCGGGCGCCAUGCCUGCAGGUCGACUCUAGAAAACAUG”, the binding signal (log2 enrichment (interaction score)) in assay [1] was -6.39; in assay [2], -5.11; in assay [8], -7.79; in assay [5], 0.45.
With “GGCUAGAACUAGUGGAUCCCCCGGCGCCCGGCGGCUCGAGCCCGGGUAAGUACACAAUGUCUGCAUGCCGCCGGGCGCCAUGCCUGCAGGUCGACUCUAGAAAACAUG”, the binding signal (log2 enrichment (interaction score)) in [1] was -5.48.
